# Source: the supplement of paper PMC10338343
# ± gives the standard deviation. Only a part is listed here, and it is no random draw. Many of these values have a large error.
# Key:
# [1] = test system: MILI (PIWIL2) piRISC loaded with piRNA #1 (26 nt); assay: pre-steady-state target cleavage rate (min^-1); higher = faster piRNA-guided slicing of the target; settings: guide: piRNA #1 5'p-UGAGGUAGUAGGUUGUAUAGUAUCCA; auxiliary factor: 500 nM mouse GTSF1
# Outline: (§1)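 For Cleave-'n-Seq, a transcribed, DNA-blocked target RNA library […] met 1 nM active affinity-purified piRISC with one synthetic guide at 33 °C for 0–8 or 0–960 min in HEPES–potassium acetate buffer, with or without 500 nM GTSF1 partner protein. Uncleaved targets were sequenced and normalised to depth and weakly complementary targets, with three trials pooled and k3 capped at 0.0001 min^-1. A burst-and-steady-state fit supplied the pre-steady-state cleavage rate.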
# [2] = test system: EfPiwi piRISC loaded with piRNA #1 (26 nt); assay: pre-steady-state target cleavage rate (min^-1); guide: piRNA #1 5'p-UGAGGUAGUAGGUUGUAUAGUAUCCA; higher = faster piRNA-guided slicing of the target; settings: auxiliary factor: 500 nM Ephydatia muelleri Gtsf1
# Outline: as §1
# [3] = test system: MIWI (PIWIL1) piRISC loaded with L1MC piRNA (30 nt); assay: pre-steady-state target cleavage rate (min^-1); MIWI and MILI are mouse PIWI proteins and EfPiwi is from a freshwater sponge; tags in brackets are library labels; higher = faster piRNA-guided slicing of the target; settings: guide: L1MC piRNA 5'p-UAACUAAAUACUAUGCAAGCUGUAGGUCCU; auxiliary factor: none (no GTSF1)
# Outline: as §1
Sequence,pre-steady-state target cleavage rate [1],pre-steady-state target cleavage rate [2],pre-steady-state target cleavage rate [3]
GGAGACCUAUCUAUACAAGCUAGUACCUCA,0.107 ± 0.017,0.00157 ± 0.0032,–
GGAGACCUUACUAUAGAACCUUCUACCUCA,0.0024 ± 0.0027,0.00177 ± 0.0043,–
GGAGACCUAUGAUAACUAGCUACUACCUCA,0.00033 ± 0.01,0.000345 ± 0.01,–
GGAGACCUAUGAUUACAACCUACUACCCCA,0.00393 ± 0.004,0.00268 ± 0.0044,–
GGAGACCUAACUAUACUAACCUACUACCUCA,0.000375 ± 0.033,0.0037 ± 0.0043,–
GGAGACCUUACUAUACAACGAUCUACCUCA,0.000121 ± 0.032,0.000289 ± 0.018,–
GGAGACCUUUCUAUACAACCUACUUCCUCA,0.0321 ± 0.0062,0.00184 ± 0.0046,–
GGAGACCAUACAAUACAACCUACAACCUCA,0.136 ± 0.014,0.00403 ± 0.0047,–
GGAGACCUAUGAUAACAACCUACUAGGAGA [g6:g16:cont:t1A],0.000142 ± 0.026,0.000296 ± 0.015,–
GGAGACCUAUGAUAUGGACCUACUACCUCA,0.000184 ± 0.02,0.000904 ± 0.007,–
GGAGACCUAUGAUAUGUAGCUUCUACCUCA,0.00011 ± 0.027,0.000149 ± 0.018,–
GGAGACCUUACUAUACAAGCUACAACCUCA,0.239 ± 0.018,0.00109 ± 0.0031,–
GGAGACCUAUCUAUACAACCUAGAUCCUCA,0.0047 ± 0.0021,0.00111 ± 0.0067,–
GGAGACCUUACUAUUCAACCUAGUACCUCA,0.0486 ± 0.011,0.00306 ± 0.0039,–
GGAGACCUAUCUAUUCAACCUAGUACCUCA,0.00955 ± 0.0033,0.0004 ± 0.0056,–
GGAGACCUAUGAUUACAACCUAGUAGCUCA,0.000602 ± 0.0094,0.00233 ± 0.0048,–
GGAGACCUAUCUAUACAACCUACUAGCACA,0.0357 ± 0.012,0.00164 ± 0.007,–
GGAGACGAUACUAUACAACCAUGAUGGAGA [g11:g24:cont:t1A],0.000137 ± 0.023,0.000604 ± 0.0065,–
GGAGACCUAACUAUACAACCUACUUGGAGA [g7:g21:cont:t1A],0.00193 ± 0.0083,0.0015 ± 0.0054,–
GGAGACCUAUGAUUACAACCUCACUACCUCA,0.00291 ± 0.0027,0.000756 ± 0.0078,–
GGAGUGGAUACUUUACAACCUACUUCCUCA,0.00204 ± 0.0024,0.00136 ± 0.0034,–
GGAGACGAUACUAUACAACCUACUACCUCA [g2:g24:cont:t1A],0.21 ± 0.018,0.0773 ± 0.024,–
GGAGACCUAUCUAUACAACCUACAACCUCA,0.0886 ± 0.013,0.00366 ± 0.0032,–
GGAGACCAUACAAUACAAGCUACUACCUCA,0.205 ± 0.016,0.00223 ± 0.0036,–

# As a working copy, some entries already given.
Sequence,pre-steady-state target cleavage rate [1],pre-steady-state target cleavage rate [2],pre-steady-state target cleavage rate [3]
GGAGACCUAUCUAUUCAACCUAGUACCUCA,0.00955 ± 0.0033,0.0004 ± 0.0056,–
GGAGACCUAUGAUUACAACCUAGUAGCUCA,0.000602 ± 0.0094,0.00233 ± 0.0048,–
GGAGACCUAUCUAUACAACCUACUAGCACA,0.0357 ± 0.012,0.00164 ± 0.007,–

# (cont.)

Sequence,pre-steady-state target cleavage rate [1],pre-steady-state target cleavage rate [2],pre-steady-state target cleavage rate [3]
GGAGAGGAUAUUAUACAACCUACUACCUCA,0.157 ± 0.0082,0.0615 ± 0.023,–
GGAGACCUAUGAUAUGUACCUACUACGCUCA,0.000101 ± 0.028,< 0.0001,–
GGAGACCUAUGUAUACAACCUAGUACCACA,0.00245 ± 0.0032,0.00174 ± 0.0049,–
GGAGACCUAUGAUAUGUUGCAACUAGCUCA,0.000259 ± 0.018,0.000113 ± 0.018,–
GGAGACGAUAGUAUAGAACCUACUACCUCA,0.158 ± 0.013,0.000825 ± 0.004,–
GGAGACCUAACUAUACAACCUAGAUCCUCA,0.00302 ± 0.0057,0.000831 ± 0.0052,–
GGAGACCUAUCUAUACAACCAACUACCUGA,0.00256 ± 0.0037,0.00269 ± 0.0037,–
GGAGUGGAUACUAUACAACCUACUACCGCA,0.0694 ± 0.0095,0.00573 ± 0.002,–
UCCUGGAACAGCUUGCAUAGUAUUAUCAAA [g7:g23:cont:t1A],–,–,0.0021 ± 0.0045
GGAGACCUAACUAUACAACUUACUACCUCA,0.0179 ± 0.0043,0.00241 ± 0.0044,–
GGAGACGAUACUAUACAACCUACUACUCUCA,0.244 ± 0.019,0.00563 ± 0.0022,–
GGAGACCUAACAAUACAACCUUCUACCUCA,0.00457 ± 0.0048,0.00277 ± 0.0041,–
UCGACCUACAGCUUCGAUAGUAUUUAGUAA,–,–,0.00154 ± 0.0039
UCCACCUACAGCUUGCAUAGUUUUUAGAAA,–,–,0.00261 ± 0.0038
GGAGACCAUACUAUACAACCUAGUAGCUCA,0.000782 ± 0.011,0.00225 ± 0.0017,–
GGAGACCAUACUAUAGAACCUAGUACCUCA,0.000396 ± 0.0075,0.00118 ± 0.0056,–
GGAGACCUAUGAUAAGAACCUACUAGCUCA,0.000168 ± 0.018,0.000145 ± 0.018,–
GGAGACGAUCACUAUACAACCUACUACCUCA,0.131 ± 0.019,0.0768 ± 0.029,–
UCCACCUACAGGUUGCAUAGUAUUUAGAAA,–,–,0.0022 ± 0.0024
GGAGUGGAUACUAUACAACCUAACUACCUCA,0.0255 ± 0.0041,0.00456 ± 0.0023,–
GGAGACCUAUGAUAUGAAGCUACAACCUCA,0.000346 ± 0.013,0.000329 ± 0.013,–
GGAGACGAUACUAUACUACGUACUACCUCA,0.0345 ± 0.004,0.00413 ± 0.0027,–
GGAGAGGAUUCUAUACAACCAACUACCUCA,0.00507 ± 0.0028,0.00361 ± 0.0027,–
GGAGAGGAUACUAUAGAACCAACUACCUCA,0.00161 ± 0.0043,0.0016 ± 0.002,–
